Reference: publication PMC7486383, “Protrudin and PDZD8 contribute to neuronal integrity by promoting lipid extraction required for endosome maturation” (Nature Communications, 2020)
No constants are given. Whether binding was seen depends on the method and setting. Binding seen in cells or lysates may run through a third protein. Some binding calls cover weakened binding; strength is not graded here.

Target: T1, endogenous protrudin of mouse brain (mouse (endogenous in mouse brain)) (UniProt Q3TXX3)
T1 sequence: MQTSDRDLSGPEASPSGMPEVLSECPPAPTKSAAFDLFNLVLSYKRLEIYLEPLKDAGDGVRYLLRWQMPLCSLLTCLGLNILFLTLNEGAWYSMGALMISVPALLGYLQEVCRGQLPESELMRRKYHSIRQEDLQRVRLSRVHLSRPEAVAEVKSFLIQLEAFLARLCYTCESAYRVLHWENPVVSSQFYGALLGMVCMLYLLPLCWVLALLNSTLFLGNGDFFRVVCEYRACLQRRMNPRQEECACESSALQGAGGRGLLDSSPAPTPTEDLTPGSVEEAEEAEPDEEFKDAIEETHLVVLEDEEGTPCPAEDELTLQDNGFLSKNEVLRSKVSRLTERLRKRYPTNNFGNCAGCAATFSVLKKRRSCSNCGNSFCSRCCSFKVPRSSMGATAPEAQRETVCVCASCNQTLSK
Test: co-IP; membrane fraction of wild-type mouse brain; IP with antibodies to protrudin or to PDZD8 or normal rabbit serum, protein G-Sepharose, 1 h at 4 °C; immunoblot for protrudin and PDZD8

binding: binds
B1: endogenous PDZD8 of mouse brain (protein, UniProt B9EJ80 1-1147)
chain: MGLLLLILASAVLGSFLTLLAQFLLLYRRQPEPRADEAARAGDGFRYLKPVPGLPLREYLYGGGAEELAACSSEAGASSTPTPDSPAPPTLETCYFLNATILFLFRELRDTALARRWVTKKIKVEFEELLQTKTAGRLLEGLSLRDVFLGDTVPFIKTIRLVRPVVASGTGEPDDPDGDALPATCPEELAFEAEVEYNGGFHLAIDVDLVFGKSAYLFVKLSRVVGRLRFVLTRVPFTHWFFSFVEDPLIDFEVRSQFEGRPMPQLTSIIVNQLKKIIKRKHTLPSYKIRFKPFFPYQALQGFEEDEELIHIQQWALTEGRLKVTLLECSRLFIFGSYDRETNVHCTLELSSGVWEEKQRSSIKTVELIKGNLQSVGLTLRLVQSTDGYAGHVIIETVAPNSPAAMADLQRGDRLIAIGGVKITSTLQVLKLIKQAGDRVLVYYQRPAGQSSQDSLGQLEESFLSSSCQAAYEEDAAGLSADTENRDLDSEFEDLASDVRVQTELKEETQPLSHSPKRTPTTLSIKPLGAISPVLNRKLISGIHPPPQKLPSKEGNKPSTLKTSETTEAAQVSKPQGPTFKPPVPPRPQGRVPLPPTDTSAQADPEAPEKPDKVLLPPPPADKPAEKQVKSVDQGEDVAAGKQSSAKQEGVKDLPSESSAPTKDSSDDPQMWESSEVLYRNKVGKWSRTRASCVFDIEACHRYLNIALWCRDPFKLGGLICLGHVSLKLEEVALGCLATSNMEYLTKFRLEPPTPKAMVTRTALRNLSMQKGFNDKFCFGDITIHFKYLKEGEPDHHIVPNVEKEKELHLVEEVSTLPKEEHFVGQMSLSENKHSFQDTQFQNPTWCDYCKKKVWTKAASQCMFCAYVCHKKCQEKCLAETPLCGATERRIDRTLKNLRLEGQDPLLGLPPRVEIEANKSVNKTTGLTRHIINTSSRLLNLRQVSKTRLSEPGTDLVEPSPKHTPNTSDNEGSDTEVCGSNSPSKRGNSAGIKLMRKEGGLDDSVFIAVKEIGRDLYRGLPTEERIQKLEFMLDKLQNEIDQELEHNNSLVREEKETNDTRKKSVLSAALAKSGERLQALTLLMIHYRAGIEDIETLENLSLDQHSKKMNKYADDTEEDLDSEISQLIDSQPFSNISDDLFGPSESV
